The results in this text go back to the supplement of paper PMC10849652.

The chains behind the UniProt entries cited, without tags or fusion partners. Where a name states a change or a piece, a line headed by the entry shows the natural chain unless it says otherwise.
UniProt Q14444, whole entry, looked up: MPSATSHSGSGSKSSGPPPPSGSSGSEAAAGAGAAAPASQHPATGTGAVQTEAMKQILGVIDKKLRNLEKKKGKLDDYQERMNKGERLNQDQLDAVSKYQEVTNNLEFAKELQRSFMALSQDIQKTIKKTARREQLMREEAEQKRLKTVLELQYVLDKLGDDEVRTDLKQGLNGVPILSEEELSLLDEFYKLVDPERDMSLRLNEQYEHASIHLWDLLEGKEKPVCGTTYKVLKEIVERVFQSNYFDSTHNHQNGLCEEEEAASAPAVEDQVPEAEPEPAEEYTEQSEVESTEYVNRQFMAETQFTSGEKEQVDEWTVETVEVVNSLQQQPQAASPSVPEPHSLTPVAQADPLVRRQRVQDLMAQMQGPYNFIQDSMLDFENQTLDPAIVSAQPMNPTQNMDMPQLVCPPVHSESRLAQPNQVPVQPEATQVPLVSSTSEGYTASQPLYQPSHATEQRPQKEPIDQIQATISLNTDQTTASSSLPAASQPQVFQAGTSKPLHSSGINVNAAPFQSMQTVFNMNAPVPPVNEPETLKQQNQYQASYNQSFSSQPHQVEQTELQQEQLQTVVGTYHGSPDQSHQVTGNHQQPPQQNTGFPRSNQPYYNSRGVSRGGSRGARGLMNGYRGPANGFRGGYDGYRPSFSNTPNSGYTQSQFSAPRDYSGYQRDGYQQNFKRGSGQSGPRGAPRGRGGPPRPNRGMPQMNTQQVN
UniProt Q13901: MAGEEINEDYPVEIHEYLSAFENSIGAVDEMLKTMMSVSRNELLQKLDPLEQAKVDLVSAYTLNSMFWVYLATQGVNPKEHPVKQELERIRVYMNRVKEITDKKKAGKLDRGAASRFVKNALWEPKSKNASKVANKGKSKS
UniProt Q9H0W9: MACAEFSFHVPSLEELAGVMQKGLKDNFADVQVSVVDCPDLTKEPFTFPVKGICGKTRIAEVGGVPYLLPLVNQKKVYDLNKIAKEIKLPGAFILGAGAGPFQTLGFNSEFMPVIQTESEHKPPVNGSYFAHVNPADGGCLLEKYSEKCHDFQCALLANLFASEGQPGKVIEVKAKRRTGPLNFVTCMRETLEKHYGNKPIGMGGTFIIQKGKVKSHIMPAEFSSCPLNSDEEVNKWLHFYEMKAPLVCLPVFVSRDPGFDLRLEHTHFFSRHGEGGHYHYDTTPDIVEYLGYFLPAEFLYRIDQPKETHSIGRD
UniProt P04632: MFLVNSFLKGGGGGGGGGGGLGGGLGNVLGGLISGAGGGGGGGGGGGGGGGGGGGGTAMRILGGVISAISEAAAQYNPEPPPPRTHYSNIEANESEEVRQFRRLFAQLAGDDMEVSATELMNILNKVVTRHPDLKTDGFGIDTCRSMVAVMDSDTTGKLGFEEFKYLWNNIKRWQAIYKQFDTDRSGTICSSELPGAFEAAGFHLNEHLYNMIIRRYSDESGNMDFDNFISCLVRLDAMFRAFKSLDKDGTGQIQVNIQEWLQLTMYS
UniProt Q10589, whole entry, looked up: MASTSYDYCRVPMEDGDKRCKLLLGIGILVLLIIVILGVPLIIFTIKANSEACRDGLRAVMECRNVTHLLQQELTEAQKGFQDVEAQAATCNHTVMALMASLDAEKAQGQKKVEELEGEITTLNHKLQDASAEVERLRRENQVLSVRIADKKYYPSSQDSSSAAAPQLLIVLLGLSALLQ
UniProt Q96KE9: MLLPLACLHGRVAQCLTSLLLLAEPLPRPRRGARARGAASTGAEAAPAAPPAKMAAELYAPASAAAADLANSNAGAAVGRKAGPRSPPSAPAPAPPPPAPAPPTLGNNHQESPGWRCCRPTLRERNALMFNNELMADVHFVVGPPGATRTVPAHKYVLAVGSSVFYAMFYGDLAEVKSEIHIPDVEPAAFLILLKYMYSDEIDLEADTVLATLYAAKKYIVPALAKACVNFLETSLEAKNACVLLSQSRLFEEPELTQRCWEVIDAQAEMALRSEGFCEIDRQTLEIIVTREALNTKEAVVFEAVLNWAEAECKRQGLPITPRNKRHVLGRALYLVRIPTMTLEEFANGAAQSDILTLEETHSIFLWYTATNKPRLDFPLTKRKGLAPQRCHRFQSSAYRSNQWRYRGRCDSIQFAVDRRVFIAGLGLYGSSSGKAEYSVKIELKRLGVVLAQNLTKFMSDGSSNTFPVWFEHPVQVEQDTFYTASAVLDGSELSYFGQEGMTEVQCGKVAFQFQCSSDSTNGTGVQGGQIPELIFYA
UniProt Q5T6V5: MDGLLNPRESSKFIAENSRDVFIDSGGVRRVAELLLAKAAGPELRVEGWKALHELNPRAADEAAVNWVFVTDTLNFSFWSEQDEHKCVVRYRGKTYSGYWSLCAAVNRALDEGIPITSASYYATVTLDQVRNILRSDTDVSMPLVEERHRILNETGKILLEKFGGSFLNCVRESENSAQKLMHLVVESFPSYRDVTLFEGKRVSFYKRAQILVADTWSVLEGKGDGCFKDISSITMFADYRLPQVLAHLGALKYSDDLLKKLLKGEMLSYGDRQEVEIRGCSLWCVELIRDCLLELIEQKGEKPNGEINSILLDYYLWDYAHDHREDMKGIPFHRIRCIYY
UniProt Q0VDD7: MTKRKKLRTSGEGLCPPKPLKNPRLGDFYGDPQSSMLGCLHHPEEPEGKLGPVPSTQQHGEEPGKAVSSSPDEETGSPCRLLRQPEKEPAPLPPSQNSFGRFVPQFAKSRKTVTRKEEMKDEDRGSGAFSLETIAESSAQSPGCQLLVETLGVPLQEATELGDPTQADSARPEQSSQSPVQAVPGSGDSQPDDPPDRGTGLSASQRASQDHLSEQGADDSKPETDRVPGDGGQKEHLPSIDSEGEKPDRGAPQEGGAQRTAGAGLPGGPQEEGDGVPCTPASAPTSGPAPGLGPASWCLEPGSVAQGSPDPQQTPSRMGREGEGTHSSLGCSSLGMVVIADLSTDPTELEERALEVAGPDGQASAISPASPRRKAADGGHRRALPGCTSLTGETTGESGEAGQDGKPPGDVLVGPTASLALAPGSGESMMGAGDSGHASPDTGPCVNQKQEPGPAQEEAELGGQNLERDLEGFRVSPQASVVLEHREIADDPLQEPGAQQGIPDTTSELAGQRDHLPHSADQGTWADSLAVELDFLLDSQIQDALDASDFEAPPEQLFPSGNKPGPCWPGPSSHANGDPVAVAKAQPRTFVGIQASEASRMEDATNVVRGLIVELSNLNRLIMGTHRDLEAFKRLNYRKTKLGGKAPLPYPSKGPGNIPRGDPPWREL

This is one part of the list. Residues, ends and D or L forms follow the SMILES beside them. *: point of attachment. Cbz = O=C(OCc1ccccc1)*

What all share (assay): log2 fold change, soluble protein after heating vs DMSO (PISA); higher = thermal stabilisation; K562 cells, 10 uM, 30 min; active = over 0.2 and 3.5 SD of the protein, either way, in both replicates (recomputed)
Compound in experiment [1]: C#Cc1cccc(Nc2ncnc3cc(OCCOC)c(OCCOC)cc23)c1 [erlotinib]
The essentials:
(§1)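 Aliquots of K562 cells (2×10^6 cells/mL) treated with 10 μM compound for 30 min were heated for 3 min over 48°C-58°C. After pooling and extraction in PBS with 0.5% NP-40 at 4°C, soluble protein from a 21,000xg, 90 min spin was quantified by TMTpro 16plex LC-MS/MS with channel sums equalised. Thermal stability is expressed against control samples, from duplicates, as a log2 fold change.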

Compound in experiment [2]: C/C(=N\NC(=O)C1=CC(=CC=C1)S(=O)(=O)N2CCOCC2)/C3=C(C=CC(=C3)Cl)O
The essentials:
as §1

Compound in experiment [3]: C1=CC(=C(C=C1Cl)C2=NC3=NC=CN=C3C(=N2)NC4=CC=NC=C4)F
The essentials: as §1

Compound in experiment [4]: C1=CC(=CC=C1C2=NC3=C(N2)C=C(C=C3)C(=O)N)OC4=CC=C(C=C4)Cl
In a few lines: as §1

Compound in experiment [5]: C1=CC2=C(C=CC(=C2)/C=C\3/C(=O)NC(=NCC4=CC=CS4)S3)N=C1
In a few lines: as §1

Compound in experiment [6]: C1=CC2=NC=CN=C2C=C1/C=C/3\C(=O)NC(=O)S3
The essentials:
as §1

Compound in experiment [7]: C1=CC=C(C=C1)C2=NC(=C(N2)C3=CC=NC=C3)C4=CC(=C(C=C4)Cl)O
In a few lines: as §1

Compound in experiment [8]: C1=CC=C2C(=C1)C3=NNC4=CC=CC(=C43)C2=O
The essentials:
as §1

Compound in experiment [9]: C1CCN(C1)C(=O)NC2=CC=CC(=C2)NC3=NC=C(C(=N3)NCCC4=CN=CN4)Br
In a few lines:
as §1

Compound in experiment [10]: C1CN(CCC1(CC2=CC=C(C=C2)Cl)N)C3=NC=NC4=C3C=CN4
The essentials:
as §1

Compound in experiment [11]: C1COCCN1CCN2C3=CC=CC=C3N=C2NC(=O)C4=CC(=CC=C4)[N+](=O)[O-] [IRAK-1-4 Inhibitor I]
The essentials: as §1

Compound in experiment [12]: C=CC(=O)N1CCC[C@@H](n2nc(-c3ccc(Oc4ccccc4)cc3)c3c(N)ncnc32)C1 [ibrutinib]
The essentials:
as §1

Compound in experiment [13]: CC(=O)c1cnc2ccc(-c3cc(Cl)c(O)c(Cl)c3)nc2c1N[C@H]1CC[C@H](CN(C)C)CC1
The essentials: as §1

Compound in experiment [14]: CC(C)(C)Cn1c(N)nc2ccc(-c3[nH]c(C(C)(C)C)nc3-c3ccc(F)cc3)nc21 [ralimetinib]
In a few lines:
as §1

Compound in experiment [15]: CC(C)(O)CC(=O)NCCn1ccc2ncnc(Nc3ccc(Oc4cccc(C(F)(F)F)c4)c(Cl)c3)c21
The essentials:
as §1

Compound in experiment [16]: CC(C)C1=C2N=C(C=C(N2N=C1)NCC3=CC=CC=C3)NCCCCCCN
In a few lines:
as §1

Compound in experiment [17]: CC(C)C[C@@H](C=O)NC(=O)[C@H](CC(C)C)NC(=O)[C@H](CC(C)C)NC(=O)OCc1ccccc1
The essentials: as §1

Compound in experiment [18]: CC(C)N(C[C@H]1O[C@@H](n2cnc3c(N)ncnc32)[C@H](O)[C@@H]1O)[C@H]1C[C@@H](CCc2nc3cc(C(C)(C)C)ccc3[nH]2)C1 [pinometostat]
In a few lines:
as §1

Compound in experiment [19]: CC1=C(C(CC(=O)N1)C2=CC=C(C=C2)C(F)(F)F)C(=O)NC3=C(C=C4C(=C3)C=NN4)F
In a few lines: as §1

Compound in experiment [20]: CC1=C(C2=C(C=C1)C(=O)C3=CC=CC=C3N2CCCN)C
In a few lines:
as §1

Consider CAPRIN1 (UniProt Q14444), for which the log2 fold change in [1] was inactive: -0.103; in experiment [2], inactive: -0.121; in [3] it was inactive: -0.272; in [4], inactive: 0.034; in experiment [5], inactive: -0.054; in experiment [6] it was inactive: 0.004. Moreover, the log2 fold change in [7] is inactive: -0.082; in [8], inactive: -0.077; in experiment [9], inactive: 0.085; in experiment [10] it was inactive: -0.103; in experiment [11], inactive: -0.202; in experiment [12], inactive: 0.066. The log2 fold change in [13] is inactive: 0.092; in experiment [14] it was inactive: 0.046; in [15], inactive: 0.106; in [16], inactive: 0.014; in experiment [17] it was inactive: 0.003; in experiment [18], inactive: 0.006. The log2 fold change was inactive: 0.015 in experiment [19] and inactive: -0.162 in experiment [20].

For the target C1D (UniProt Q13901), the log2 fold change in experiment [1] was inactive: 0.022; in [2], inactive: -0.078; in [3] it was inactive: -0.01; in experiment [4], inactive: -0.011; in [5], inactive: -0.246; in experiment [6] it was inactive: 0.068. The log2 fold change in experiment [7] is inactive: -0.071; in [8], inactive: -0.044; in experiment [9], inactive: -0.019; in experiment [10], inactive: -0.1; in experiment [11], inactive: 0.013; in experiment [12] it was inactive: -0.041. The log2 fold change in experiment [13] is inactive: -0.081; in [14], inactive: 0.016; in [15] it was inactive: -0.047; in experiment [16] it was inactive: 0.072; in experiment [17], inactive: 0.055; in [18], inactive: -0.081. Also, the log2 fold change in [20] was inactive: -0.004.

Turning to C11orf54 (UniProt Q9H0W9), the log2 fold change is inactive: -0.045 in experiment [1]; inactive: -0.019 in [2]; inactive: 0.062 in experiment [3]; inactive: 0.008 in [4]; inactive: -0.057 in [5]; inactive: 0.005 in [6]. Also, the log2 fold change in experiment [7] is inactive: 0.039; in [8], inactive: -0.009; in experiment [9], inactive: -0.043; in experiment [10] it was inactive: 0.003; in experiment [11], inactive: 0.063; in experiment [12] it was inactive: 0.041. For the same target, the log2 fold change in experiment [13] is inactive: 0.025; in experiment [14] it was inactive: -0.035; in experiment [15], inactive: -0.043; in experiment [16], inactive: 0.046; in experiment [17], inactive: 0.024; in experiment [18], inactive: -0.057. Further, the log2 fold change in experiment [19] was inactive: -0.006; in [20] it was inactive: -0.059.

Consider CAPNS1 (UniProt P04632), for which the log2 fold change is inactive: -0.027 in [1]; inactive: 0.03 in experiment [2]; inactive: 0.016 in experiment [3]; inactive: 0.017 in experiment [4]; inactive: 0.022 in experiment [5]; inactive: 0.049 in experiment [6]. Further, the log2 fold change is inactive: -0.072 in [7]; inactive: -0.016 in experiment [8]; inactive: 0.036 in experiment [9]; inactive: 0.066 in experiment [10]; inactive: 0.057 in [11]; inactive: 0.079 in [12]. Further, the log2 fold change in [13] was inactive: -0.017; in experiment [14], inactive: -0.129; in [15], inactive: 0.036; in experiment [16], inactive: 0.029; in experiment [17], inactive: -0.096; in [18], inactive: -0.037. Also, the log2 fold change was inactive: 0.059 in [19] and inactive: -0.026 in experiment [20].

With BST2 (UniProt Q10589), the log2 fold change in experiment [1] was inactive: -0.018; in [2], inactive: 0.026; in [3], inactive: -0.046; in experiment [4], inactive: 0; in experiment [5], inactive: 0.009; in experiment [6], inactive: 0.024. The log2 fold change in [7] was inactive: -0.062; in experiment [8] it was inactive: -0.013; in [9], inactive: 0.066; in experiment [10] it was inactive: -0.063; in [11], inactive: -0.004; in experiment [12], inactive: 0. For the same target, the log2 fold change was inactive: -0.109 in experiment [13]; inactive: 0.033 in experiment [14]; inactive: 0.025 in experiment [15]; inactive: -0.108 in experiment [16]; inactive: 0.12 in [17]; inactive: -0.006 in experiment [18]. The log2 fold change in [20] is inactive: 0.017.

BTBD6 (UniProt Q96KE9): the log2 fold change in experiment [1] was inactive: 0.407; in [2], active: -0.706; in [3] it was inactive: 0.165; in [4], inactive: -0.188; in experiment [5], inactive: 0.016; in [6], inactive: -0.057. Besides, the log2 fold change in experiment [7] is inactive: 0.3; in [8], inactive: 0.081; in [9] it was inactive: -0.19; in experiment [10], inactive: 0.185; in [12] it was inactive: 0.136; in experiment [13], inactive: 0.145. Further, the log2 fold change in experiment [14] was inactive: 0.201; in [15], inactive: -0.008; in [16], inactive: 0.296; in experiment [17] it was inactive: 0.025; in [20], inactive: 0.005.

For C9orf64 (UniProt Q5T6V5), the log2 fold change in experiment [1] is inactive: 0.046; in [2] it was inactive: 0.142; in [3] it was inactive: 0.009; in experiment [4] it was inactive: 0.065; in experiment [5], inactive: 0.117; in experiment [6], inactive: 0.017. Further, the log2 fold change in [7] is inactive: 0.054; in [8], inactive: -0.037; in [9] it was inactive: -0.001; in [10], inactive: -0.039; in experiment [11], inactive: -0.041; in experiment [12], inactive: -0.03. The log2 fold change was inactive: -0.019 in experiment [13]; inactive: -0.018 in experiment [14]; inactive: -0.181 in experiment [15]; inactive: -0.288 in experiment [16]; inactive: 0.012 in experiment [17]; inactive: 0.053 in experiment [18]. Besides, in experiment [20], the log2 fold change was inactive: -0.097.

For the target C19orf57 (UniProt Q0VDD7), the log2 fold change is inactive: -0.144 in [1]; inactive: -0.046 in [2]; inactive: 0.123 in experiment [4]; inactive: 0.181 in experiment [5]; inactive: 0.151 in experiment [6]; inactive: 0.006 in experiment [7]. The log2 fold change is inactive: -0.028 in experiment [8]; inactive: 0.003 in experiment [11]; inactive: -0.075 in experiment [12]; inactive: -0.042 in [13]; inactive: -0.016 in experiment [14]; inactive: -0.025 in experiment [16]. Also, the log2 fold change in [17] is inactive: 0.052; in experiment [18] it was inactive: -0.05.
